The target of the test is Flag-progerin (HEK-293T) (human) (UniProt P02545). The test is described as follows: affinity purification with mass spectrometry; Flag-tagged progerin transfected into HEK-293T cells, captured on anti-Flag affinity gel 16 h at 4 °C, washed with 50 mM Tris-HCl pH 7.4, 150 mM NaCl; SDS–PAGE, LC–MS/MS.

Amino acid sequences for entries named in this document (tags omitted). A change or cut given only in a name is not applied to a line headed by its entry. Chains listed by the source or under a name are the forms on record and can include a tag or linker.
Flag-progerin (HEK-293T) (P02545, form named): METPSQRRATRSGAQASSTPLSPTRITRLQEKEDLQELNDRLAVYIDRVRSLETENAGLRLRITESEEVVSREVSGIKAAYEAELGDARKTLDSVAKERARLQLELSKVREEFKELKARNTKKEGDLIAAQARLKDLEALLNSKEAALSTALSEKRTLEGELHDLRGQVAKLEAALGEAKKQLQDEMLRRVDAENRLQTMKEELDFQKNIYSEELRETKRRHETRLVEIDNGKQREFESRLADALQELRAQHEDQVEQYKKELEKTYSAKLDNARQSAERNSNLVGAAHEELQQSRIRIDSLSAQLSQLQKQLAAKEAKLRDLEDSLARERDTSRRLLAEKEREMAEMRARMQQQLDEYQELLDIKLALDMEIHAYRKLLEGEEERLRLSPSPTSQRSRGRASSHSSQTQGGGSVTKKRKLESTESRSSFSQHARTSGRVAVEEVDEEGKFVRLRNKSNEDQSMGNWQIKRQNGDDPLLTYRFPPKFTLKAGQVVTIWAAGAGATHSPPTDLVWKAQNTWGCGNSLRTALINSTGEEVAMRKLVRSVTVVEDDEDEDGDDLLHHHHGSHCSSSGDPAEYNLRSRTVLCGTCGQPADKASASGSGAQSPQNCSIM
UniProt P26641: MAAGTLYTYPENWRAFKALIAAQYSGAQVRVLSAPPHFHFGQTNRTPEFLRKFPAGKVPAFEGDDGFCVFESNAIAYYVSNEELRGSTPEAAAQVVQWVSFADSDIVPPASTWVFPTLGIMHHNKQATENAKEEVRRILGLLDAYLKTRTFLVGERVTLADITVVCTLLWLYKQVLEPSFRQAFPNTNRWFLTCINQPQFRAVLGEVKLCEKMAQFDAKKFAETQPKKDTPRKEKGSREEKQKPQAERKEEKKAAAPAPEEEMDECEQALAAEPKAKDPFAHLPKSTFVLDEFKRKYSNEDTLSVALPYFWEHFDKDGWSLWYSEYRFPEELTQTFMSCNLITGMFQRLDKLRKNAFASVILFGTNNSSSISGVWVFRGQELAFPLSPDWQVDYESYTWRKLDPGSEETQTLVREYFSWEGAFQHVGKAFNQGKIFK
UniProt P26599: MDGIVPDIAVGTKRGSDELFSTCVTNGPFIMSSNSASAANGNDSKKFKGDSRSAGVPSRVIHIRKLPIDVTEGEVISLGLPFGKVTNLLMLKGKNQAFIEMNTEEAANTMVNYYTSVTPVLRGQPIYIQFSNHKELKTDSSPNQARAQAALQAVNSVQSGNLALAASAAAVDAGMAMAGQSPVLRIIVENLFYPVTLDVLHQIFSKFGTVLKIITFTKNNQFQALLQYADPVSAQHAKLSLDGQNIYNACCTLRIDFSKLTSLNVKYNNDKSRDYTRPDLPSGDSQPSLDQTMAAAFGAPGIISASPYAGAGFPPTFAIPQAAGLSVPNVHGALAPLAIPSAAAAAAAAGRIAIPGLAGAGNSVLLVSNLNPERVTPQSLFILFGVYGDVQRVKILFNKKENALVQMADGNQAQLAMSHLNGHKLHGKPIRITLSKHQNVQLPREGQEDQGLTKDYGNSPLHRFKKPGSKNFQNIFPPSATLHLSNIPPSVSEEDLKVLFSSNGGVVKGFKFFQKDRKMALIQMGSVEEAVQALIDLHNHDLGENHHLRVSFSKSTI

No constants are given. Whether binding was seen depends on the method and setting. In cells and extracts the contact can be indirect. These calls come from enrichment with a bait or labelling near it, and not all partners need be listed.

For EF1γ (from UniProt P26641 1-437), the binding entry was “binds”.
Then “PTBP1 (endogenous, HEK-293T) (from UniProt P26599 1-557)”, with “binds”.
